# The list does not hold the whole screen: it gathers tests that were run many times, whatever their T/C, doses with no T/C, and many T/C values between a quarter and a half above the control. Other doses and runs of a compound stand elsewhere. T/C gives the treated animals as a percentage of the vehicle group. Some entries give survivors of the animals treated and no T/C: the source files T/C as zero there, which appears to mark a toxic dose or a test without result, not a measured value. Some survivor counts are full or nearly so, which does not show that the dose was tolerated: the source hardly ever lists a survival T/C far under the control, and the zero likely stands for such cases as well. Survivors were counted at the toxicity check, usually on the fifth day, unless a day is given; later deaths do not show. Schedule codes are those of the source, taken here to give the interval after Q, in days (D) or hours (H), and the number of doses after X. Some schedule codes hold Z or #, which are not explained here. Where survival is the endpoint, the PubChem record calls one and a half times the control and up active, and a quarter to a half above the control has no call in these data; cut-offs in other NCI protocols can differ. Some entries were tested several times; the values are given in rising order. Marks such as (2×) say how often a value occurs here.
# System: BDF1 mice, P288 leukemia ip, survival T/C
# Test: NCI In Vivo Anticancer Drug Screen. Data for tumor model P288 Lymphocytic Leukemia (intraperitoneal) in B6D2F1 (BDF1) mice
# Details: T/C endpoint: survival time, mean or median, higher T/C = longer survival
# Experimental: The antitumor activity of compounds was measured in mice bearing transplantable tumors. Survival or tumor size were measured and the results are expressed as the measurement made in the treated group (T) divided by the measurement made in the vehicle treated control group (C). The tumor model used in this assay is P288 Lymphocytic Leukemia (intraperitoneal) in B6D2F1 (BDF1) mice
# [1] = dose: 2.0 mg/kg/injection, schedule: Q01DX010 (ip), vehicle: saline
# [2] = dose: 5.0 mg/kg/injection, schedule: Q01DX Z (ip), vehicle: carboxymethylcellulose (CMC)
# [3] = dose: 10.0 mg/kg/injection, schedule: Q01DX Z (ip), vehicle: carboxymethylcellulose (CMC)
# [4] = dose: 25.0 mg/kg/injection, schedule: Q01DX Z (ip), vehicle: carboxymethylcellulose (CMC)
# [5] = dose: 50.0 mg/kg/injection, schedule: Q01DX Z (ip), vehicle: carboxymethylcellulose (CMC)
# [6] = dose: 100.0 mg/kg/injection, schedule: Q01DX Z (ip), vehicle: carboxymethylcellulose (CMC)
# [7] = dose: 200.0 mg/kg/injection, schedule: Q01DX Z (ip), vehicle: carboxymethylcellulose (CMC)
# [8] = dose: 250.0 mg/kg/injection, schedule: Q01DX010 (ip), vehicle: saline
# [9] = dose: 62.5 mg/kg/injection, schedule: Q01DX010 (ip), vehicle: saline
# [10] = dose: 125.0 mg/kg/injection, schedule: Q01DX010 (ip), vehicle: saline
smiles,measurement,setting,value
CC[C@H](c1ccc(O)cc1)[C@@H](CC)c1ccc(O)cc1,survivor count,"dose: 250.0 mg/kg/injection, schedule: Q01DX Z (sc), vehicle: steroid suspending solution",6 of 6
same,survivor count,"dose: 500.0 mg/kg/injection, schedule: Q01DX Z (sc), vehicle: steroid suspending solution",5 of 6
O=NN(CCCl)C(=O)NCCCl,T/C,"dose: 4.0 mg/kg/injection, schedule: Q01DX Z (ip), vehicle: saline",134 % of control
same,T/C,"dose: 8.0 mg/kg/injection, schedule: Q01DX Z (ip), vehicle: saline",140 % of control
same,survivor count,"dose: 50.0 mg/kg/injection, schedule: Q01DX010 (ip), vehicle: saline",5 of 6
same,survivor count,"dose: 128.0 mg/kg/injection, schedule: Q01DX Z (ip), vehicle: saline",6 of 6
CS(=O)(=O)OCCCCOS(C)(=O)=O,T/C,"dose: 6.25 mg/kg/injection, schedule: Q01DX010 (ip), vehicle: saline",131 % of control
Cc1cc(N(CCCl)CCCl)ccc1N=Nc1ccccc1C(=O)O,survivor count,"dose: 7.5 mg/kg/injection, schedule: Q01DX Z (ip), vehicle: carboxymethylcellulose (CMC)",6 of 6
same,survivor count,"dose: 15.0 mg/kg/injection, schedule: Q01DX Z (ip), vehicle: carboxymethylcellulose (CMC)",6 of 6
same,survivor count,"dose: 30.0 mg/kg/injection, schedule: Q01DX Z (ip), vehicle: carboxymethylcellulose (CMC)",6 of 6
same,survivor count,"dose: 40.0 mg/kg/injection, schedule: Q01DX010 (ip), vehicle: saline",6 of 6
same,survivor count,"dose: 60.0 mg/kg/injection, schedule: Q01DX Z (ip), vehicle: carboxymethylcellulose (CMC)",6 of 6
CC(CCC(C)OS(C)(=O)=O)OS(C)(=O)=O (stereo unspecified),survivor count,"dose: 0.5 mg/kg/injection, schedule: Q01DX Z (ip), vehicle: carboxymethylcellulose (CMC)",6 of 6
same,survivor count,[1],6 of 6
same,survivor count,"dose: 4.0 mg/kg/injection, schedule: Q01DX010 (ip), vehicle: saline",6 of 6
same,survivor count,[2],4 of 6
same,survivor count,"dose: 8.0 mg/kg/injection, schedule: Q01DX010 (ip), vehicle: saline",6 of 6
same,survivor count,[3],6 of 6
same,survivor count,"dose: 20.0 mg/kg/injection, schedule: Q01DX Z (ip), vehicle: carboxymethylcellulose (CMC)",6 of 6
same,survivor count,"dose: 40.0 mg/kg/injection, schedule: Q01DX Z (ip), vehicle: carboxymethylcellulose (CMC)",1 of 6
Nc1nc(=S)c2ncn(C3OC(CO)C(O)C3O)c2[nH]1 (stereo unspecified),survivor count,"dose: 0.04 mg/kg/injection, schedule: Q01DX Z (ip), vehicle: carboxymethylcellulose (CMC)",6 of 6
same,survivor count,"dose: 0.08 mg/kg/injection, schedule: Q01DX Z (ip), vehicle: carboxymethylcellulose (CMC)",6 of 6
same,survivor count,"dose: 0.16 mg/kg/injection, schedule: Q01DX Z (ip), vehicle: carboxymethylcellulose (CMC)",6 of 6
same,survivor count,"dose: 0.32 mg/kg/injection, schedule: Q01DX Z (ip), vehicle: carboxymethylcellulose (CMC)",6 of 6
same,survivor count,"dose: 0.63 mg/kg/injection, schedule: Q01DX Z (ip), vehicle: carboxymethylcellulose (CMC)",6 of 6
same,survivor count,"dose: 1.25 mg/kg/injection, schedule: Q01DX Z (ip), vehicle: carboxymethylcellulose (CMC)",6 of 6
same,T/C,[1],137 % of control
same,survivor count,"dose: 2.5 mg/kg/injection, schedule: Q01DX Z (ip), vehicle: carboxymethylcellulose (CMC)",6 of 6
same,survivor count,[2],6 of 6
same,survivor count,[3],6 of 6
CCCSc1ncnc2nc[nH]c12,T/C,[4],130 % of control
same,survivor count,[4],6 of 6
same,survivor count,[5],2 of 6
same,survivor count,[6],6 of 6
same,survivor count,[7],1 of 6
same,survivor count,[8],4 of 6
CO[C@@H]1[C@@H](OC2OC(C)C(OC3CC(C)(O)C(OC(=O)CC(C)C)C(C)O3)C(N(C)C)C2O)[C@@H](CC=O)C[C@@H](C)C(=O)/C=C/C2O[C@H]2C[C@@H](C)OC(=O)C[C@H]1OC(C)=O (stereo partly specified),T/C,"dose: 400.0 mg/kg/injection, schedule: Q01DX010 (ip), vehicle: saline",125 % of control
O=C(Nc1ccc(C2=NCCN2)cc1)c1ccc(C(=O)Nc2ccc(C3=NCCN3)cc2)c([N+](=O)[O-])c1,T/C,"dose: 18.0 mg/kg/injection, schedule: Q01DX010 (ip), vehicle: saline",144 % of control
COc1cc2c(c(OC)c1OC)-c1ccc(OC)c(=O)cc1[C@@H](NC(C)=O)CC2,T/C,"dose: 0.06 mg/kg/injection, schedule: Q01DX Z (ip), vehicle: saline",149 % of control
same,survivor count,"dose: 0.25 mg/kg/injection, schedule: Q01DX Z (ip), vehicle: saline",0 of 6
same,survivor count,"dose: 0.5 mg/kg/injection, schedule: Q01DX Z (ip), vehicle: saline",0 of 6
O=c1cn[nH]c(=O)[nH]1,T/C,[9],88 and 94 % of control
same,survivor count,[9],6 of 6
same,T/C,[10],88 and 100 % of control (2×)
same,survivor count,[10],6 of 6
same,T/C,[8],"88, 94, 100 % of control"
same,survivor count,[8],6 of 6
same,T/C,"dose: 500.0 mg/kg/injection, schedule: Q01DX010 (ip), vehicle: saline",90 and 100 % of control (3×)
same,T/C,"dose: 500.0 mg/kg/injection, schedule: Q01DX Z (ip), vehicle: carboxymethylcellulose (CMC)",125 % of control
CC(=O)Nc1ccc2nc3ccc(NC(C)=O)cc3[n+](-c3ccccc3)c2c1,T/C,"dose: 12.5 mg/kg/injection, schedule: Q01DX Z (ip), vehicle: carboxymethylcellulose (CMC)",130 % of control
same,T/C,[4],136 and 137 % of control
same,survivor count,[4],6 of 6
same,T/C,[5],138 % of control
same,survivor count,[5],6 of 6
same,T/C,"dose: 100.0 mg/kg/injection, schedule: Q01DX010 (ip), vehicle: saline",125 % of control
same,T/C,[6],142 % of control
same,survivor count,[6],6 of 6
same,T/C,"dose: 200.0 mg/kg/injection, schedule: Q01DX010 (ip), vehicle: saline",125 % of control
same,T/C,[7],142 % of control
same,survivor count,[7],4 of 6
same,survivor count,"dose: 800.0 mg/kg/injection, schedule: Q01DX Z (ip), vehicle: carboxymethylcellulose (CMC)",4 of 6
O=C(Nc1ccc(NC(=O)Nc2cccc(C3=NCCN3)c2)cc1)Nc1cccc(C2=NCCN2)c1,T/C,"dose: 240.0 mg/kg/injection, schedule: Q01DX010 (ip), vehicle: saline",147 % of control
same,T/C,"dose: 480.0 mg/kg/injection, schedule: Q01DX010 (ip), vehicle: saline",147 % of control
Oc1cc(CN(CCCl)CCCl)c(O)cc1CN(CCCl)CCCl,survivor count,"dose: 2.5 mg/kg/injection, schedule: Q01DX010 (ip), vehicle: saline",3 of 6
same,survivor count,"dose: 7.5 mg/kg/injection, schedule: Q01DX Z (sc), vehicle: steroid suspending solution",5 of 6
same,survivor count,"dose: 15.0 mg/kg/injection, schedule: Q01DX Z (sc), vehicle: steroid suspending solution",6 of 6

# — PubChem BioAssay AID216 (DTP/NCI, 2004)
